The values that follow come from PMC3360616.

These are yes or no findings as the source states them, for the method shown. In cells and extracts the contact can be indirect. Some binding calls cover weakened binding; strength is not graded here. Tags and fused reporters may be left off the sequences shown.

The target of test [1] is T1, Flag-SDS3ΔHABMs (SDS3 lacking the three consecutive hyaluronan binding motifs) (human) (UniProt Q9H7L9).
T1 sequence: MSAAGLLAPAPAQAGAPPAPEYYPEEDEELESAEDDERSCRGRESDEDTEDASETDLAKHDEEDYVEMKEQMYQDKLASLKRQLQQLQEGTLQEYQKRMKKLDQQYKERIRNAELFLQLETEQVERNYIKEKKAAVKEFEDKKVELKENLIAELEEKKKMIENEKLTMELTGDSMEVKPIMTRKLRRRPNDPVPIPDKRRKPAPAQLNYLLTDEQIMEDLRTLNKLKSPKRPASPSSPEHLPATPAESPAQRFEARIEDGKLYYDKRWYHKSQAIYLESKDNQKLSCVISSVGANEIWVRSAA
The test is described as follows: co-IP; HeLa cells transfected with myc-USP17 and Flag-SDS3 constructs; co-immunoprecipitation with either an anti-myc or an anti-Flag antibody, immunoblot. For orientation: In western blotting, separated proteins are transferred to a membrane and probed.

For test [2], the target named is T2, Flag-SDS3 (full length human suppressor of defective silencing 3) (human) (UniProt Q9H7L9).
T2 sequence: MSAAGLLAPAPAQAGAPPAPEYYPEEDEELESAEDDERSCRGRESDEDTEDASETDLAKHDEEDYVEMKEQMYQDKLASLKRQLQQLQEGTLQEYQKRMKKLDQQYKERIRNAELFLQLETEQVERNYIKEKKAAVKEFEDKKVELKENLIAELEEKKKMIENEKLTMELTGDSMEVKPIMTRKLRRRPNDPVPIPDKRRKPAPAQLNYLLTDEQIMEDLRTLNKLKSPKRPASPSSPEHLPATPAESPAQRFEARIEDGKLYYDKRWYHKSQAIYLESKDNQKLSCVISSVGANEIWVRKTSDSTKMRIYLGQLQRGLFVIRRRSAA
Described as above.

B1: myc-USP17ΔHABMs (USP17 lacking both hyaluronan binding motifs) (enzyme, UniProt Q6R6M4)
chain: MEDDSLYLGGEWQFNHFSKLTSSRPDAAFAEIQRTSLPEKSPLSSEARVDLCDDLAPVARQLAPRKKLPLSSRRPAAVGAGLQNMGNTCYENASLQCLTYTPPLANYMLSREHSQTCQRPKCCMLCTMQAHITWALHSPGHVIQPSQALAAGFHRGKQEDAHEFLMFTVDAMKKACLPGHKQVDHHSKDTTLIHQIFGGCWRSQIKCLHCHGISDTFDPYLDIALDIQAAQSVKQALEQLVKPEELNGENAYHCGLCLQRAPASKTLTLHTSAKVLILVLKRFSDVTGNKLAKNVQYPECLDMQPYMSQQNTGPLVYVLYAVLVHAGWSCHDGHYFSYVKAQEGQWYKMDDAKVTACSITSVLSQQAYVLFYIQKSEWERHSESVSRGREPRALGAEDTDDHPCLQAPELDERLVERATQESTLDHWKFPQEQNKVEGTLPPNVLVIHQSKYKCGMKNHHPEQQSSLLNLSSTTRTDQESVNTGTLASLQGRTRRSKGKNKHSKRALLVCQ
Regarding B1, the binding entry in test [1] and in test [2] was “binds” in each case.

B2: myc-USP17ΔHABM2 (second HABM deleted USP17) (enzyme, UniProt Q6R6M4)
chain: MEDDSLYLGGEWQFNHFSKLTSSRPDAAFAEIQRTSLPEKSPLSSEARVDLCDDLAPVARQLAPRKKLPLSSRRPAAVGAGLQNMGNTCYENASLQCLTYTPPLANYMLSREHSQTCQRPKCCMLCTMQAHITWALHSPGHVIQPSQALAAGFHRGKQEDAHEFLMFTVDAMKKACLPGHKQVDHHSKDTTLIHQIFGGCWRSQIKCLHCHGISDTFDPYLDIALDIQAAQSVKQALEQLVKPEELNGENAYHCGLCLQRAPASKTLTLHTSAKVLILVLKRFSDVTGNKLAKNVQYPECLDMQPYMSQQNTGPLVYVLYAVLVHAGWSCHDGHYFSYVKAQEGQWYKMDDAKVTACSITSVLSQQAYVLFYIQKSEWERHSESVSRGREPRALGAEDTDRRATQGELKRDHPCLQAPELDERLVERATQESTLDHWKFPQEQNKVEGTLPPNVLVIHQSKYKCGMKNHHPEQQSSLLNLSSTTRTDQESVNTGTLASLQGRTRRSKGKNKHSKRALLVCQ
For the molecule B2, the binding result in test [2] is “binds weakly”.

B3: myc-USP17 (full length USP17 deubiquitinating enzyme) (enzyme, UniProt Q6R6M4 1-530)
chain: MEDDSLYLGGEWQFNHFSKLTSSRPDAAFAEIQRTSLPEKSPLSSEARVDLCDDLAPVARQLAPRKKLPLSSRRPAAVGAGLQNMGNTCYENASLQCLTYTPPLANYMLSREHSQTCQRPKCCMLCTMQAHITWALHSPGHVIQPSQALAAGFHRGKQEDAHEFLMFTVDAMKKACLPGHKQVDHHSKDTTLIHQIFGGCWRSQIKCLHCHGISDTFDPYLDIALDIQAAQSVKQALEQLVKPEELNGENAYHCGLCLQRAPASKTLTLHTSAKVLILVLKRFSDVTGNKLAKNVQYPECLDMQPYMSQQNTGPLVYVLYAVLVHAGWSCHDGHYFSYVKAQEGQWYKMDDAKVTACSITSVLSQQAYVLFYIQKSEWERHSESVSRGREPRALGAEDTDRRATQGELKRDHPCLQAPELDERLVERATQESTLDHWKFPQEQNKTKPEFNVRKVEGTLPPNVLVIHQSKYKCGMKNHHPEQQSSLLNLSSTTRTDQESVNTGTLASLQGRTRRSKGKNKHSKRALLVCQ
With B3, the binding entry in test [2] is reported as “binds”.

B4: myc-USP17ΔHABM1 (first HABM deleted USP17) (enzyme, UniProt Q6R6M4)
chain: MEDDSLYLGGEWQFNHFSKLTSSRPDAAFAEIQRTSLPEKSPLSSEARVDLCDDLAPVARQLAPRKKLPLSSRRPAAVGAGLQNMGNTCYENASLQCLTYTPPLANYMLSREHSQTCQRPKCCMLCTMQAHITWALHSPGHVIQPSQALAAGFHRGKQEDAHEFLMFTVDAMKKACLPGHKQVDHHSKDTTLIHQIFGGCWRSQIKCLHCHGISDTFDPYLDIALDIQAAQSVKQALEQLVKPEELNGENAYHCGLCLQRAPASKTLTLHTSAKVLILVLKRFSDVTGNKLAKNVQYPECLDMQPYMSQQNTGPLVYVLYAVLVHAGWSCHDGHYFSYVKAQEGQWYKMDDAKVTACSITSVLSQQAYVLFYIQKSEWERHSESVSRGREPRALGAEDTDDHPCLQAPELDERLVERATQESTLDHWKFPQEQNKTKPEFNVRKVEGTLPPNVLVIHQSKYKCGMKNHHPEQQSSLLNLSSTTRTDQESVNTGTLASLQGRTRRSKGKNKHSKRALLVCQ
With B4, the binding result in test [2] was “binds”.
